Assay results published in PubChem BioAssay (NCATS).
Inconclusive results, whose numbers are uncertain, are shown with a selection of clear calls. The source made the active and inactive calls. The call rests on the fitted dose curve; in most records, active means well fitted curve in either direction with a large enough effect (not every such curve was filed as active); inconclusive means small, poorly fitted or top-dose-only effect, or another doubt; inactive means flat fitted curve, though single readings scatter.

assay: Stat Signaling Pathway (AID 446); conditions: ME-180 (cervical carcinoma) SIE beta-lactamase reporter, IL-6 stimulated, 5 h; at 7.69 µM (top of the series) unless noted;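 further: ME-180 cervical cancer cells given 40 pM IL-6 alongside compound; SIE-controlled beta-lactamase reporter measured as 460/530 nm FRET emission ratio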
Procedure, shortened: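 Emission at 460 and 530 nm (excitation 405 nm) reports SIE-controlled beta-lactamase in ME-180 cells. Cells received compound with 40 pM IL-6 for 5 hrs at 37 C; data scaled between 300 pM IL-6 and 125 nM JAK-inhibitor controls.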
On the % scale 0 is the no-effect control and ±100 the full control effect.

activity, negative = inhibition, inactive:
CN1C[C@H](C(=O)N[C@]2(C)O[C@]3(O)[C@H]4CCCN4C(=O)[C@H](Cc4ccccc4)N3C2=O)C[C@H]2c3cccc4[nH]cc(c34)C[C@@H]21 -7.06% [at 17.2 µM]
CCCCOc1ccc(CN(C)c2ncnc(N)n2)cc1 8.02% [at 17.2 µM]
COC(=O)c1ccc(C2/C(=C(\O)c3cccc(OC)c3)C(=O)C(=O)N2CCCN2CCOCC2)cc1 (stereo unspecified) 15.2% [at 17.2 µM]
NC(N)=Nc1nc2ccc([N+](=O)[O-])cc2[nH]1 9.75%
COc1ccccc1Nc1ncnc2c1cnn2-c1cccc(C)c1 -6.58% [at 17.2 µM]
CC1(C)CC(=O)C2=C(C1)N(Cc1ccco1)C(=O)C2(NC(=O)c1cccnc1)C(F)(F)F (stereo unspecified) -9.45% [at 17.2 µM]
CN=C(NC#N)NCCSC[C@H]1N=CN=C1C 3.21% [at 17.2 µM]
COc1cc2c(cc1O)[C@@H](c1cc(O)c(O)c(OC)c1)[C@@](O)(C(=O)O)[C@@H](CO)[C@@H]2O 4.61%
COC(=O)N1CCC2(CC1)CN(c1ccccn1)C2 9.9%
CCN(CC)c1ncc(C)c(=O)[nH]1 7.65% [at 17.2 µM]
Cn1c(NCCN2CCCCC2)cc(=O)n(C)c1=O 9.99% [at 17.2 µM]
O[C@@H]1[C@@H](OCc2ccccc2)OC[C@H](O)[C@@H]1O 4.2%
O=C(Nn1cnnc1)C(c1ccccc1)c1ccccc1 3.83% [at 17.2 µM]
N#Cc1ccccc1-c1ccc2ncnc(N3CCNCC3)c2c1 2.26%
N/C(CCCN1CCCCC1)=N/O -0.379% [at 17.2 µM]
COC(=O)C(NC(=O)c1ccccc1)(Nc1nccs1)C(F)(F)F (stereo unspecified) 5.62% [at 17.2 µM]
COC(=O)c1[nH]c2ccc(Cl)cc2c1NC(=O)C1CC1 1.62% [at 17.2 µM]
O=C1CC(C(=O)O)c2ccccc2N1 (stereo unspecified) 6.42% [at 17.2 µM]
CS(=O)(=O)N1CCC2(CCCN(Cc3cc(C(F)(F)F)cc(C(F)(F)F)c3)C2)CC1 5.1%
COc1ccccc1OCC(=O)Nc1ccc(S(=O)(=O)Nc2cc(C)nc(C)n2)cc1 -5.19% [at 17.2 µM]

Some of these compounds in order of heavy-atom count, low to high.
activity, negative = inhibition, inactive:
CCN(CC)c1ncc(C)c(=O)[nH]1 7.65% [at 17.2 µM]
COc1ccccc1Nc1ncnc2c1cnn2-c1cccc(C)c1 -6.58% [at 17.2 µM]
CC1(C)CC(=O)C2=C(C1)N(Cc1ccco1)C(=O)C2(NC(=O)c1cccnc1)C(F)(F)F (stereo unspecified) -9.45% [at 17.2 µM]

Next part:

activity, negative = inhibition, inconclusive:
CCc1ccc(NC(=O)CSC2=C(C#N)C(c3ccc4c(c3)OCO4)CC(=O)N2)cc1 (stereo unspecified) -35.5% [inhibitor] [at 17.2 µM]
O=c1c[n+](CCCC[n+]2cc(=O)o[nH]2)[nH]o1 64.9% [activator]
CS(=O)(=O)N1CCC2(CC1)CN(Cc1ccc(C#N)cc1)C2 -64.9% [inhibitor]
COC(=O)C1C(=O)CC(C)(O)C(C(=O)OC)C1c1ccccc1F (stereo unspecified) -35.9% [inhibitor] [at 17.2 µM]
Cc1cccc(CNc2cc(-c3cccnc3)ncn2)c1 4.96% [activator]
CN(C)CCCN1c2ccccc2Sc2cnccc21 5.43% [inhibitor]
CCNc1ncc2nc(-c3ccc(Cl)cc3)c(=O)n(C)c2n1 71% [activator]
Clc1ccc(SCc2cn3ccsc3n2)cc1 -92.1% [inhibitor] [at 17.2 µM]
O=C(O)[C@H](/C=C\c1ccccc1)c1ccccc1 -1.73% [inhibitor]
N#Cc1c2c(c(-c3ccccc3)[nH]c1=O)CCCC2 38.6% [activator] [at 17.2 µM]
O=C(O)C[C@H](Nc1ccccc1)C(=O)O 10.1% [activator]
COc1ccc(C(=O)N2CCC3(CC2)CN(C(=O)Nc2cccc(C#N)c2)C3)cc1 -16.7% [inhibitor]
O=C(COc1ccccc1)Nc1ccc(-c2nnc(-c3ccco3)o2)cc1 7.89% [activator] [at 17.2 µM]
O=C(O)[C@@H](O)[C@H](O)C(=O)O 8.94% [activator]
O=C(NO)c1ccccc1O 6.78% [inhibitor] [at 17.2 µM]
CC(=O)N[C@@H]1CONC1=O 43.4% [activator]
